Counter-ions that a name gives are not always drawn. About 180 (8.6%) of roughly 2,100 compounds showed an effect of 50% or more. The list shows a part of the results.
tested on: MOLM1 and UCSD/AML1 (averaged); experiment: cell viability relative to DMSO control (POC); higher = less growth inhibition; conditions: 1 µM; 72 h
Description: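 Primary viability screen in the 3q26 EVI1-high AML cell lines MOLM1 and UCSD/AML1 (1.5e3 cells/well, 384-well), compounds at 1 uM for 72 h. ATP CellTiter-Glo read-out given as percent of viable cells over DMSO control (POC), averaged over duplicates. DMSO was the negative control and 5 uM etoposide the positive control. This mapping covers the MicroSource Spectrum and Selleck anticancer libraries (drug names).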

Structure (SMILES) | cell viability
CC(C)=CCc1c2c(c3occ(-c4ccc(O)c(O)c4)c(=O)c3c1O)C=CC(C)(C)O2 | 109%
COc1cc(NS(=O)(=O)c2ccc(N)cc2)ncn1 | 97%
Cc1cc(C)nc(NS(=O)(=O)c2ccc(N)cc2)n1 | 97.6%
CN(C(=O)CN(CCO)CC(=O)N(C)C(C)(C)Cc1ccccc1)C(C)(C)Cc1ccccc1 | 97.7%
CCOC(=O)Nc1nc2ccccc2[nH]1 | 103%
CC(C)(C)c1cc(NC(=O)Nc2ccc(-c3cn4c(n3)sc3cc(OCCN5CCOCC5)ccc34)cc2)no1 [Quizartinib (AC220)] | 50.9%
COc1ccc(-c2oc3cc(OC)c(OC)c(OC)c3c(=O)c2OC)cc1OC | 101%
NC[C@H]1O[C@H](O[C@H]2[C@H](O)[C@@H](O[C@H]3O[C@H](CO)[C@@H](O)[C@H](N)[C@H]3O)[C@H](N)C[C@@H]2N)[C@H](N)C[C@@H]1O | 122%
O=C(/C=C/c1cccc(S(=O)(=O)Nc2ccccc2)c1)NO [Belinostat (PXD101)] | 1.86%
CC(C)(CO)[C@@H](O)C(=O)NCCC(=O)O [PANTOTHENIC ACID(d) Na salt] | 111%
Cc1cc(C(C)(C)C)cc(C)c1CC1=NCCN1 | 92.2%
CCN(CCCCOC(=O)c1ccc(OC)c(OC)c1)C(C)Cc1ccc(OC)cc1 (stereo unspecified) | 95.1%
CCN(CC)CCOCCOC(=O)C1(c2ccccc2)CCCC1 | 102%
CC(=O)O[C@@H]1CC(=O)[C@@]2(C)C(CC(=O)[C@]3(C)C2CC[C@@]2(C)[C@H](c4ccoc4)OC(=O)C4OC423)C1(C)C (stereo partly specified) | 100%
CCOC(=O)c1c(C)cc(OC)cc1O | 95.3%
COc1ccc2c3n(c(=NC(=O)c4cccnc4)nc2c1OC)CCN3 | 64.3%
CNC(=O)c1ccc(N2C(=S)N(c3ccc(C#N)c(C(F)(F)F)c3)C(=O)C2(C)C)cc1F [MDV3100 (Enzalutamide)] | 102%
CCCCC1C(=O)N(c2ccccc2)N(c2ccc(O)cc2)C1=O (stereo unspecified) | 97.9%
COC(=O)C[C@H]1C2(C)CC34OC5(C)O[C@@]6([C@H](OC(C)=O)C(OC(C)=O)[C@]7(C)C(/C(=C(/O)C(C)C)C(=O)O[C@H]7c7ccoc7)[C@@]6(O5)[C@H](OC(C)=O)[C@@]3(O)C2OC(=O)C(C)C)[C@]14C (stereo partly specified) | 102%
O=C(O)c1cc(=O)c(O)c2c(O)c(O)c(O)cc2c1 | 115%
CC(=O)Nc1ccc(OC(=O)c2ccccc2O)cc1 | 97.8%
COc1cc2nc(N3CCN(C(=O)C4COc5ccccc5O4)CC3)nc(N)c2cc1OC (stereo unspecified) | 51%
O=C(O)C1=C(CSc2nnnn2CS(=O)(=O)O)CS[C@@H]2[C@H](NC(=O)[C@H](O)c3ccccc3)C(=O)N12 | 105%

Reformatted: results already given.
Structure (SMILES),cell viability
COc1ccc2c3n(c(=NC(=O)c4cccnc4)nc2c1OC)CCN3,64.3%
CNC(=O)c1ccc(N2C(=S)N(c3ccc(C#N)c(C(F)(F)F)c3)C(=O)C2(C)C)cc1F [MDV3100 (Enzalutamide)],102%

(listing goes on)

Structure (SMILES) | cell viability
CC(C)CC(NC(=O)[C@H](C)N)C(=O)O (mixture of isomers) | 105%
NC[C@H](O)c1ccc(O)c(O)c1 | 97.4%
CCN(CC)CCNC(=O)c1ccc(N)cc1 | 105%
O[C@H]1[C@H](O)[C@@H](O)C2OC[C@H]1O2 | 110%
CCCCCCOc1ccccc1C(N)=O | 97.3%
OCCn1cc(-c2ccc3c(c2)CC/C3=N\O)c(-c2ccncc2)n1 | 89%
C[C@@H]1CCC[C@H](C)N1NC(=O)c1ccc(Cl)c(S(N)(=O)=O)c1 | 79.6%
CCOC(=O)C(Cc1ccc(O)cc1)NC(C)=O (stereo unspecified) | 105%
CN[C@H]1CC[C@@H](c2ccc(Cl)c(Cl)c2)c2ccccc21 | 75.5%
Nc1ccc(S(=O)(=O)Nc2nccs2)cc1 | 103%
COC(=O)C(O)c1ccccc1 (stereo unspecified) | 106%
Cc1ccc(-c2cc(C(F)(F)F)nn2-c2ccc(S(N)(=O)=O)cc2)cc1 [Celecoxib] | 58.1%
Cc1ccc(-c2cc(C(F)(F)F)nn2-c2ccc(S(N)(=O)=O)cc2)cc1 | 95.5%
CC(C)[N+]1(C)[C@@H]2CC[C@H]1C[C@@H](OC(=O)C(CO)c1ccccc1)C2 (stereo partly specified) | 120%
COc1cc(CNC(=O)CCCC/C=C/C(C)C)ccc1O | 98%
COC(=O)c1c(OC)cc2c(c1C)Oc1c(Cl)c(O)c(Cl)c(C)c1C(=O)O2 | 107%
C[C@]12CC[C@@H]3c4ccc(O)cc4C[C@@H](CCCCCCCCC[S+]([O-])CCCC(F)(F)C(F)(F)F)[C@H]3[C@@H]1CC[C@@H]2O (stereo partly specified) [Fulvestrant (Faslodex)] | 102%
CO/N=C(\C(=O)N[C@@H]1C(=O)N2C(C(=O)O)=C(COC(C)=O)CS[C@H]12)c1csc(N)n1 | 100%
COC(=O)[C@H](Cc1ccccc1)NC(=O)[C@@H](N)CC(=O)O | 53.3%
COc1cc(O)c2c(=O)cc(C)oc2c1CC=C(C)C | 87.8%
OC[C@@H](O)[C@@H](O[C@@H]1O[C@H](CO)[C@@H](O)[C@H](O)[C@H]1O)[C@H](O)[C@@H](O)CO | 92.2%
C[N+](C)(C)CC(O)CC(=O)[O-] (stereo unspecified) | 99.5%
CC(=O)O[C@]1(C)CC[C@@]23C[C@H]1C(C)(C)[C@@H]2CC[C@H]3C | 107%

Structure (SMILES) | cell viability
CC(=O)Nc1c(I)cc(I)c(C(=O)O)c1I | 99.3%
Cc1cc2cc3c(C)cc(=O)oc3c(C)c2o1 | 94.2%
CC(=O)Nc1nnc(S(N)(=O)=O)s1 | 102%
COC1=CC(=O)C(O)=C/C1=C\C=C\c1ccccc1 | 95%
Cc1cc(Nc2cc(N3CCN(C)CC3)nc(Sc3ccc(NC(=O)C4CC4)cc3)n2)n[nH]1 [VX-680 (MK-0457, Tozasertib)] | 22%
CC[C@@]1(O)C(=O)OCc2c1cc1n(c2=O)Cc2cc3c(CN(C)C)c(O)ccc3nc2-1 [Topotecan HCl] | 2.12%
Nc1nnc(-c2cccc(Cl)c2Cl)c(N)n1 | 92.1%
O=C(O)/C=C(\CC(=O)O)C(=O)O | 103%
Nc1nc(=O)[nH]cc1F | 94.1%
Cc1c(C)c2c(c(C)c1O)CCC(C)(CCCC(C)CCCC(C)CCCC(C)C)O2 (stereo not drawn) [alpha-TOCHOPHEROL] | 103%
CC(=O)O[C@]1(C(C)=O)CC[C@H]2[C@@H]3C=C(C)C4=CC(=O)CC[C@]4(C)[C@H]3CC[C@@]21C | 91.8%
CC(=O)O[C@]1(C(C)=O)CC[C@H]2[C@@H]3C=C(C)C4=CC(=O)CC[C@]4(C)[C@H]3CC[C@@]21C [Megestrol Acetate] | 92.5%
NC[C@H]1O[C@H](O[C@H]2[C@H](O)[C@@H](O[C@H]3O[C@H](CO)[C@@H](O)[C@H](N)[C@H]3O)[C@H](N)C[C@@H]2N)[C@H](N)[C@@H](O)[C@@H]1O | 110%
OCC(O)C(O)C(O)CO (stereo unspecified) | 105%
CC1CCC2(OC1)OC1CC3C4CCC5C[C@@H](O)CCC5(C)C4=CCC3(C)C1[C@@H]2C (stereo partly drawn) [3beta-HYDROXYISOALLOSPIROST-9(11)-ENE] | 91.8%
Nc1ccccc1NC(=O)c1ccc(CNc2nccc(-c3cccnc3)n2)cc1 [Mocetinostat (MGCD0103)] | 4.85%
CN(C)CC(=O)OC[C@@H](O)[C@@H](O)[C@H](O)[C@@H](O)C(=O)O | 108%
CC(C)(C)NCC(O)COc1cccc2c1CC(O)C(O)C2 (stereo unspecified) | 104%
Cc1cc(O)cc(O)c1C(=O)O | 115%
CC1=C(C(=O)O)N2C(=O)[C@@H](NC(=O)[C@H](N)c3ccccc3)[C@H]2SC1 | 118%
CC[C@H](C)C(=O)O[C@H]1C[C@H](O)C=C2C=C[C@H](C)[C@H](CC[C@@H](O)C[C@@H](O)CC(=O)O)[C@H]21 | 95%
O=C1C(O)=C(O)C(=O)C(O)=C1O | 96.4%
COc1ccc2c(c1)c(CC(=O)OCC(=O)O)c(C)n2C(=O)c1ccc(Cl)cc1 | 112%

Structure (SMILES) | cell viability
Cc1c2oc3c(C)ccc(C(=O)N[C@@H]4C(=O)N[C@H](C(C)C)C(=O)N5CCC[C@H]5C(=O)N(C)CC(=O)N(C)[C@@H](C(C)C)C(=O)O[C@@H]4C)c3nc-2c(C(=O)N[C@@H]2C(=O)N[C@H](C(C)C)C(=O)N3CCC[C@H]3C(=O)N(C)CC(=O)N(C)[C@@H](C(C)C)C(=O)O[C@@H]2C)c(N)c1=O | 1.96%
COc1ccc2cc3[n+](cc2c1OC)CCc1cc2c(cc1-3)OCO2 | 89.3%
CC(C)Cn1c(=O)n(C)c(=O)c2nc[nH]c21 | 102%
COC(=O)C[C@H]1C(C)(C)C(=O)[C@@H]2CC3C4=CC(=O)O[C@@H](c5ccoc5)[C@]4(C)CC[C@@H]3[C@@]1(C)C2=O (stereo partly specified) | 98.6%
CC(C)=CC1C(C(=O)O)C1(C)C (stereo unspecified) | 85.6%
COc1cc2ncnc(Nc3ccc(F)c(Cl)c3)c2cc1NC(=O)/C=C/CN1CCCCC1 | 50.9%
O=C(O)/C=C/C=C/c1ccccc1 | 121%
CCCCC1C(=O)N(c2ccccc2)N(c2ccccc2)C1=O | 103%
COCCCOc1cc(C[C@@H](C[C@H](N)[C@@H](O)C[C@H](C(=O)NCC(C)(C)C(N)=O)C(C)C)C(C)C)ccc1OC | 84%
CCCCOC(=O)c1ccc(O)cc1 | 84%
C#C[C@]1(OC(C)=O)CC[C@H]2[C@@H]3CCC4=CC(=O)CC[C@@H]4[C@H]3CC[C@@]21C | 93.9%
CCCc1nc2c(C)cc(-c3nc4ccccc4n3C)cc2n1Cc1ccc(-c2ccccc2C(=O)O)cc1 | 89.7%
Cc1ccc(C(=O)N(CCCN)[C@@H](c2nc3cc(Cl)ccc3c(=O)n2Cc2ccccc2)C(C)C)cc1 | 15.3%
COc1ccc(-c2cc(=O)c3c(O)c(OC)c(OC)c(OC)c3o2)cc1OC | 80.2%
N=C(N)N1CCc2ccccc2C1 | 97.4%
CC(=O)/N=c1/sc(S(N)(=O)=O)nn1C | 112%
CC1=CC(=O)c2ccccc2C1=O | 98.7%
C[C@@H](Oc1cc(-c2cnn(C3CCNCC3)c2)cnc1N)c1c(Cl)ccc(F)c1Cl | 21.4%
CC(C)=CCC/C(C)=C\CO | 117%
COCCCOc1ccnc(C[S+]([O-])c2nc3ccccc3[nH]2)c1C (stereo unspecified) | 84.9%
Cc1ccc(C(=O)C(C)CN2CCCCC2)cc1 (stereo unspecified) | 101%
CNCC[C@@H](Oc1ccccc1C)c1ccccc1 | 105%

Reference: the supplement of paper PMC11150407
